The source of these data is doi:10.1101/657312.

No constants are given. Whether binding was seen depends on the method and setting. Some entries that bind do so weakly or less than the wild type. Tags and fused reporters may be left off the sequences shown.

In this assay the target is T1, FBF-2 (a.a. 121-632) fused to the LexA binding domain (plasmid pJK2017) (C. elegans) (UniProt Q09312).
T1 sequence: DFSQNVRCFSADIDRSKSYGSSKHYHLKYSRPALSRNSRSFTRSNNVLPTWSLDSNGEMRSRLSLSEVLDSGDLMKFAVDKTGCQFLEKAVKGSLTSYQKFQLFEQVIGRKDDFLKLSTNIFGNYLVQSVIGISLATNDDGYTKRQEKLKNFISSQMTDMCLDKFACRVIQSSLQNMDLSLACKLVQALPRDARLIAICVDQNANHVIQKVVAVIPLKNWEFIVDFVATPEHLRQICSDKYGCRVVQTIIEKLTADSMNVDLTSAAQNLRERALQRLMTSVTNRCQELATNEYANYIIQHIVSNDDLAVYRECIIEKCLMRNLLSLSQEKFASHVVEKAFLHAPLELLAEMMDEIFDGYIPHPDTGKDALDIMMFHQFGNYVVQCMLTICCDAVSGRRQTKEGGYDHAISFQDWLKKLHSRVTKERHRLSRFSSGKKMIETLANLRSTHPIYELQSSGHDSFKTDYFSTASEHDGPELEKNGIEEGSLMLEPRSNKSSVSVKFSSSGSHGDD
Description: two-hybrid.

B1: full length LST-1(wt) fused to the Gal4 activation domain (protein, UniProt P91820 1-328)
chain: MCSTFILPPRRNNCNKSSSTIAYSKSQHEAPKQLLQLRSEIKPLIPLNQPSNFWESSQDSGVLSSLSSSPQQRSGLRSQKLHLTYIEKNKRVRAMIPQQQHYHAFDRPTHYNSRKTSGPPPLMRTPSSGFSSASSSENMFSGLTLSDNENKIHEIMDPSVDVDLDMFLLPDCRYKQPVQPSTSTSRNNVSQISGSSRLNGSTRHVAPIVPKVAMPSELSYANVKRSSGYVDYMPTTYNSNVTSNSSAASVPMSPGTWVRCHYCWESYVKLCQRVANLEPLISCDGPWNWHTLYDMQGRVTCPRLWFAQLDRAGSEMVEQMGHARNVPV
Consider B1, for which the binding result was “binds”.

B2: LST-1(1-152) fused to the Gal4 activation domain (domain or fragment, UniProt P91820 1-152)
chain: MCSTFILPPRRNNCNKSSSTIAYSKSQHEAPKQLLQLRSEIKPLIPLNQPSNFWESSQDSGVLSSLSSSPQQRSGLRSQKLHLTYIEKNKRVRAMIPQQQHYHAFDRPTHYNSRKTSGPPPLMRTPSSGFSSASSSENMFSGLTLSDNENKI
Regarding B2, the binding entry is listed as “binds”.

B3: LST-1(1-152) with the A and B motifs mutated in the same fragment, Gal4 activation domain fusion (domain or fragment, UniProt P91820 1-152)
chain: MCSTFILPPRRNNCNKSSSTIAYSKSQHEAPAQLAQLRSEIKPLIPLNQPSNFWESSQDSGVLSSLSSSPQQRSGLRSQALHATYIEKNKRVRAMIPQQQHYHAFDRPTHYNSRKTSGPPPLMRTPSSGFSSASSSENMFSGLTLSDNENKI
For the molecule B3, the binding entry is listed as “no binding”.

B4: LST-1(1-152) with the B motif mutated (K80A L83A), Gal4 activation domain fusion (domain or fragment, UniProt P91820 1-152)
chain: MCSTFILPPRRNNCNKSSSTIAYSKSQHEAPKQLLQLRSEIKPLIPLNQPSNFWESSQDSGVLSSLSSSPQQRSGLRSQALHATYIEKNKRVRAMIPQQQHYHAFDRPTHYNSRKTSGPPPLMRTPSSGFSSASSSENMFSGLTLSDNENKI
With B4, the binding result is listed as “binds”.
